Results: PubChem BioAssay AID540276 (National Center for Advancing Translational Sciences (NCATS), 2011)
Values joined by “and” are separate entries in the source; they are usually repeats but may differ in a detail not shown here. Identical values can stand only once. Out of some 300,000 compounds screened, about 5,400 (1.8%) were called active. The shares of active, inactive and inconclusive entries below differ from those in the screen. The call rests on the fitted dose curve; tested in HEK293 cells. A potency beside an inconclusive call is a rough fit, not a confirmed value.

Assay: qHTS for inhibitors of binding or entry into cells for Marburg Virus
Settings: Marburg virus pseudotyped entry inhibition, cell reporter; activity change, negative = inhibition: at 37.8 µM (top of the series) unless noted
On the % scale 0 is the no-effect control and ±100 the full control effect; potency means the concentration at half of the fitted maximal effect.

Compound	activity change, negative = inhibition	Potency
Cc1cc(N2CCN(C)CC2)nc2ccc(NC(=S)NCCN3CCc4ccccc4C3)cc12	inactive: -0.252%	–
CCOC(=O)C1=C(C)N=c2s/c(=C\c3ccc(OCC(=O)O)cc3)c(=O)n2C1c1ccccc1 (centres undefined)	inactive: -11%	–
CN(C)C(CNC(=O)Cc1c(Cl)cccc1Cl)c1ccccc1 (centres undefined)	–	inconclusive: 0.562 µM [inhibitor, full curve, poor fit]
CC1Nc2ccccc2C(=O)N1NC(=O)c1ccc(Br)cc1 (centres undefined)	inactive: 5.42% [at 46.1 µM]	–
CCCCNC(=S)N(CCN(C)C)Cc1cc2cc3c(cc2[nH]c1=O)OCCO3	–	inconclusive: 10 µM [inhibitor, partial curve, poor fit]
CCN(CC)CCNC(=O)c1ccc(Sc2ccc(C)cc2)c(NC(C)=O)c1	–	inconclusive: 12.6 µM [inhibitor, single point]
CCOC(=O)N1CCN(C(=O)C(NC(=O)c2ccc(CC)cc2)C(C)C)CC1 (centres undefined)	–	inconclusive: 29.1 µM [inhibitor, single point]
CN1CCN(c2ccc([N+](=O)[O-])c(SCCO)c2)CC1	–	inconclusive: 0.562 µM [activator, partial curve, poor fit]
COc1cc(OC)cc(C(=O)NCC(=O)OCc2nc3ccccc3s2)c1	–	inconclusive: 0.891 µM [activator, partial curve, poor fit]
Cc1ccc(C)c(NC(=O)C2CC(Cl)=CCC2C(=O)O)c1 (centres undefined)	inactive: 3.37%	–
O=C(NC(c1ccc(Cl)cc1)c1cc(Cl)c2cccnc2c1O)c1cccnc1 (centres undefined)	–	inconclusive: 1.58 µM [inhibitor, full curve, poor fit]
CC(C(=O)NC1CCCC1)N(C(=O)c1ccc(-c2ccccc2)[nH]1)c1ccccc1F (centres undefined)	inactive: -29.6%	–
CCOC(=O)c1oc2ccc(S(=O)(=O)n3nc(-c4cc(OC)cc(OC)c4)cc3N)cc2c1C	inactive: -7.69% [at 46.1 µM]	–
CCN(CC(=O)NCc1ccc(Cl)cc1)C(=O)CSCC(=O)Nc1ccc(C)cc1	–	inconclusive: 35.5 µM [activator, single point]
COC(=O)Cc1ccc(OCc2ccc(Cl)nc2)cc1	inactive: -5.65% [at 46.1 µM]	–
O=[N+]([O-])c1ccc(S(=O)(=O)NCCc2cn3ccccc3n2)cc1	inactive: 10.3%	–
CC(=O)Nc1ccc(S(=O)(=O)Nc2nc3ccc([N+](=O)[O-])cc3s2)cc1	inactive: 5.86% [at 46.1 µM]	–
NCCCNc1ccc([N+](=O)[O-])cc1C(F)(F)F	–	inconclusive: 35.5 µM [inhibitor, single point]
N#Cc1ccc(OC(=O)c2cc(-c3ccc4c(c3)OCCO4)on2)cc1	–	inconclusive: 3.98 µM [activator, partial curve]
CCCc1cc(C(=O)N2CCN(S(=O)(=O)c3ccc(OC)c(OC)c3)CC2)cs1	inactive: -18.7%	–
CCCCCC(=O)N1CCN(S(=O)(=O)c2ccc3c(c2)OCCO3)CC1	–	inconclusive: 0.282 µM [inhibitor, partial curve, poor fit]
CCOc1ccc2[nH]c3c(N4CCN(c5ccccn5)CC4)ncnc3c2c1	–	inconclusive: 7.3 µM [inhibitor, partial curve, poor fit]

Compound	activity change, negative = inhibition	Potency
O=C(CSc1n[nH]c(-c2cccs2)n1)N1CCN(S(=O)(=O)c2ccc3ccccc3c2)CC1	–	inconclusive: 22.4 µM [inhibitor, single point]
COC(=O)c1sc2ccccc2c1NC(=O)c1ccc(S(=O)(=O)N2CCCC(C)C2)cc1 (centres undefined)	–	inconclusive: 2.59 µM [activator, partial curve, poor fit]
Cc1ccccc1-n1ncc2c(SCC(=O)NC3CCCC3)ncnc21	–	inconclusive: 35.5 µM [inhibitor, single point]
Cc1cc(C(=O)Nc2ccc3ccccc3c2)c(C)o1	–	inconclusive: 8.91 µM [inhibitor, partial curve, poor fit]
CCCC(C(=O)Nc1ccc(S(=O)(=O)N2CCCC2)cc1)c1ccccc1 (centres undefined)	–	inconclusive: 35.5 µM [inhibitor, single point]
O=C(COC(=O)C12CC3CC(CC(C3)C1)C2)NNC(=O)c1ccccc1	inactive: -5.32%	–
COc1cc(/C=N/NC(=O)c2ccoc2C)ccc1O	–	inconclusive: 2.51 µM [activator, partial curve]
NC(=O)c1ccc(OCC(O)CN2CC=C(c3ccc(F)cc3)CC2)cc1 (centres undefined)	–	inactive and inconclusive: 2 µM [inhibitor, full curve, poor fit]
Cc1ccc2nc(SCC(=O)NCc3ccccc3)nc(=O)n2c1	inactive: -1.83% [at 46.1 µM]	–
COc1ccc(NC(=O)Cc2c(F)c(F)c(F)c(F)c2F)cc1OC	inactive: 7.45% [at 46.1 µM]	–
COc1ccc(OC)c2c1sc(=NC(=O)C1COc3ccccc3O1)n2C (centres undefined)	–	inconclusive: 17.8 µM [activator, single point]
COc1ccc(-c2nnc(SCC(=O)Nc3ccc(C)cc3)n2C)cc1	inactive: -6.46%	–
COc1ccc(OC)c(Nc2cc(C)nc3ccccc23)c1	–	inconclusive: 13 µM [inhibitor, single point]
O=C(O)CC(CN1C(=O)c2ccccc2C1=O)c1ccccc1 (centres undefined)	–	inconclusive: 7.08 µM [activator, full curve, poor fit]
COC(=O)C1C(=O)c2c([nH]c(C(=O)OC3CCCCC3)c2C)CC1C (centres undefined)	–	inconclusive: 1.16 µM [activator, full curve, poor fit]
CN(C)C(CNC(=O)NC1CCCCC1)c1cccnc1 (centres undefined)	inactive: -8.86%	–
CCCCCCCCCCCCCCCC(O)C[N+](C)(C)CCO (centres undefined)	inactive: 25.7%	–
CCS(=O)(=O)N1CCN(Cc2ccccc2OC)CC1	inactive: -5.07%	–
CCN1C(c2ccc(F)cc2)=CS/C1=C(\C#N)c1nnc2n1-c1ccccc1SC2	–	inconclusive: 10.3 µM [inhibitor, partial curve, poor fit]
O=C(NCC(c1ccco1)N1CCN(c2ccccc2)CC1)c1ccc2c(c1)OCO2 (centres undefined)	inactive: 0.252% [at 46.1 µM]	–
CCN(CCCn1c(=S)[nH]c2ccc(N3CCOCC3)cc2c1=O)c1ccccc1	–	inconclusive: 3.98 µM [activator, single point]
CCOc1ccc(NS(=O)(=O)c2cc(NC(=O)CCC(=O)c3cccs3)ccc2Cl)cc1	–	inconclusive: 35.5 µM [inhibitor, partial curve, poor fit]
